# Experimental data: PubChem BioAssay AID686943 (Drosophila RNAi Screening Center, 2013)
# Screen: 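Search across the genome for regulators of signalling from receptor tyrosine kinase to ERK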 (primary screen)
# Cells: Drosophila S2R+ haemocyte-like cells expressing YFP-tagged ERK (Rolled)
# Reagents: long dsRNA against Drosophila genes
# Treatment: insulin stimulation versus unstimulated cells; dose and duration not given
# Read-out: 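Per-plate z-scores of phospho-ERK immunostaining normalised to YFP-tagged ERK, measured with and without insulin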
# Scale: replicate 1, z-score of dpERK with insulin and replicate 2, z-score of dpERK with insulin: higher = more active ERK per ERK-YFP after insulin; replicate 1, z-score of dpERK under basal conditions: higher = more basal active ERK per ERK-YFP; replicate 1, z-score of ERK-YFP with insulin: higher = more YFP-tagged ERK signal
# In all, the deposit lists about 23,000 reagents; below is an unselected part of those that have a named target and a result. 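Extra replicates exist only for a retested subset of genes; insulin dose and duration not given; both raised and lowered dpERK matter.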 A plus sign joins genes that one reagent is predicted to hit. The record does not give: the amount of reagent, the time to read-out.
gene,dsRNA,"replicate 1, z-score of dpERK with insulin","replicate 2, z-score of dpERK with insulin","replicate 1, z-score of dpERK under basal conditions","replicate 1, z-score of ERK-YFP with insulin"
CG32371,DRSC22209,-0.01,0.88,-1.33,0.48
CG1537,DRSC19662,0.6,0.08,-0.4,-0.15
Usp1,DRSC14155,-0.32,-0.58,-0.03,0.13
Oda,DRSC07626,-0.43,-0.15,0.85,0.51
CG14205,DRSC19560,-0.5,0.24,-0.48,0.14
CG43326 + CG43325,DRSC04157,0.26,0.33,0.08,0.27
BBS4,DRSC06352,0.4,0.62,1.11,0.91
robl62A,DRSC08153,0.46,-0.68,0.06,0.26
CG5381,DRSC02852,0.12,-0.13,0.6,-0.83
CG15710,DRSC06581,0.54,-0.21,-0.01,0.29

Part of the list above, showing only “replicate 1, z-score of ERK-YFP with insulin”.
CG32371 [DRSC22209]	0.48
CG1537 [DRSC19662]	-0.15

Additional records:
gene,dsRNA,"replicate 1, z-score of dpERK with insulin","replicate 2, z-score of dpERK with insulin","replicate 1, z-score of dpERK under basal conditions","replicate 1, z-score of ERK-YFP with insulin"
CG9917,DRSC20218,0.2,0.57,-0.17,0.18
Edg84A,DRSC12594,0.33,-0.01,0.22,0.24
SCCRO,DRSC10844,-0.81,0.78,0.26,0.16
CG42355,DRSC07967,-0.45,-0.01,0.03,-0.44
CG7841,DRSC10922,-1.72,-0.15,0,0.26
stol,DRSC01956,0.23,1.06,1.07,-0.24
Cht7 + tRNA:Cys-GCA-1-4 + tRNA:Lys-CTT-1-13,DRSC08021,0.67,0.5,1.28,-0.24
CG3448,DRSC10368,0.4,0.1,0.24,0.04
CG33169,DRSC11853,0.01,0.32,0.76,0.42
obst-J,DRSC10821,1.03,0.09,-0.5,-0.64
gek,DRSC04688,0.63,0.39,-0.11,-0.31
Ugt35A1,DRSC16892,0.98,-0.17,-0.17,-0.23
CG42272,DRSC08766,-0.04,0.03,0.33,0.41
CG42272,DRSC22502,-2.12,-2.52,-1.98,-0.12
